# In PubChem BioAssay AID1273 (Columbia University Molecular Screening Center, 2008):
# Some of the results follow. These are further read-outs of the screen, such as a control signal, another cell line or another target. No call is given for them. Compounds called inactive in the main read-out are mostly missing here.
# Assay: insulin gene promoter suppression in islet cells – imaging, TRM-6 cells (human fetal islet line), eGFP reporter, cell count, primary screen (AID 1273;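 also: cells exposed to compound for 48 h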)
# Conditions: measured here: cell count, toxicity, at 2 µM, reporter expression induced with tamoxifen
row,Compound,normalized cell count [%]
1,CC(=O)N1CCN(C(=O)c2cc(C)nc3ccccc23)CC1,88
2,Cc1ccnc(SCCn2c(N3CCC(C)CC3)nc3c2c(=O)n(C)c(=O)n3C)n1,89.7
3,Cc1oc2c(c1C(=O)Nc1cccc(C(=O)O)c1)CCCC2,121
4,Cc1nc([N+](=O)[O-])c(Br)n1CC(=O)c1ccc(Cl)cc1,89.5
5,COC(=O)CNC(=O)c1ccc(=O)oc1,55.9
6,COc1ccc(C2OCC3(CO2)SC(=O)NC3=O)cc1 (centres undefined),146
7,O=C(Oc1ccc(N(Cc2cccs2)C2=NS(=O)(=O)c3ccccc32)cc1)c1ccccc1Cl,119
8,COc1ccc(/C=N/Nc2nccnc2Cl)cc1,114
9,COc1ccc2[nH]c3c(=O)n(N)c(C)nc3c2c1,189
10,COc1cccc(CNc2ncnc3cc(Cl)ccc23)c1,223
11,COc1ccc(-c2nc3ccccc3[nH]2)cc1,139
12,CC1CCN(C(=O)Cc2nn(C)c(=O)c3ccccc23)CC1,127
13,COCC(=O)N(Cc1ccccc1)c1ccccn1,75.4
14,Cc1c(-c2nc(N)nc(Nc3ccc(F)cc3)n2)oc2ccccc12,117
15,CCCn1nnnc1SCC(=O)N1CCOCC1,142
16,CCc1nc(Nc2ccc3c(c2)OCO3)c2oc3ccccc3c2n1,158
17,CCOC(=O)c1nn(-c2cccc(Cl)c2)c(C)c1C(C)=O,155
18,CCC(=O)Nc1ccc(C(=O)CSc2nc3ccccc3[nH]2)cc1,115
19,N#C/C(=C/c1ccc(Sc2nc3ccccc3[nH]2)o1)c1cccc(F)c1,147
20,CCOC(=O)N1CCN(C(=O)CCSCCc2ccncc2)CC1,66.7
21,Cc1ccc(/C=C/c2nc3ccccc3[nH]2)o1,141
22,COc1ccc(C(=O)C(CN2CCOCC2)c2ccccc2)cc1 (centres undefined),46.3
23,O=[N+]([O-])c1cccc(-c2nc3ccc([N+](=O)[O-])cc3[nH]2)c1,168

row,Compound,normalized cell count [%]
1,O=C1CCC(C(=O)NC2(C(=O)NC3CCCCC3)CCCCC2)N1 (centres undefined),135
2,Fc1ccc2nc3[nH]c4ccccc4c3nc2c1,96.4
3,COc1ccccc1Cn1c(=O)c2ccccc2n2c(Sc3ncnc4sccc34)nnc12,127
4,O=C(CN1C(=O)CSc2ccc(S(=O)(=O)N3CCCCC3)cc21)NCc1cccnc1,117
5,Clc1ccc2c(NCc3ccco3)ncnc2c1,132
6,COc1ccc(-c2[nH]nc3oc(=O)c(CCO)c(C)c23)cc1,169
7,COc1ccc(-n2c(Cc3cccn3C)nnc2SCC(=O)NC2CCCC2)cc1,38.6
8,NC(=O)CSc1nnc2ccc(-c3ccco3)nn12,48.4
9,CNC(=O)c1ccsc1NC(=O)c1ccc2c(c1)CCCC2,143
10,c1ccn2cc(-c3ccc4c(c3)OCCO4)nc2c1,143
11,CCN(CC)S(=O)(=O)c1ccc(N/N=C/c2cc(OC)ccc2O)nc1,65
12,Cn1c(=O)c2c(nc(CN3CCN(Cc4ccccc4)CC3)n2Cc2ccccc2)n(C)c1=O,112
13,O=C(CC1SC2=NCCN2C1=O)Nc1ccc(Cl)cc1 (centres undefined),80.3
14,Cc1ccc(CNC(=O)c2ccc(-n3cccc3)cc2)cc1,46
15,C=CC(O)Cc1c(C)n[nH]c1C (centres undefined),80.1
16,Cc1ccc(C2=NC3(CCCCC3)NC2=S)cc1,160
17,O=C(NCc1ccco1)c1ccc(C(F)(F)F)cc1,57.1
18,CCN(c1ccc(NS(=O)(=O)c2cc(Cl)ccc2Cl)cc1)C(C)C,101
19,O=C(c1cc2ccccc2oc1=O)N1CCN(c2ncccn2)CC1,90
20,Cc1nn(-c2ccccc2)c(Cl)c1CN(C(=O)CCl)c1ccc(Cl)cc1,0
21,COc1ccccc1-c1noc(-c2ccccc2C(=O)Nc2ccccc2)n1,73.2
22,COc1ccc(C(=O)Nn2c(SCC(=O)c3ccc(Cl)cc3)nc3ccccc3c2=O)cc1,64
23,COc1ccc(OC)c(S(=O)(=O)N2CCN(c3ccccn3)CC2)c1,121

row,Compound,normalized cell count [%]
1,CC1=C(C(=O)Nc2ccccc2C)C(c2ccc(C)o2)n2c(s/c(=C/c3ccccc3)c2=O)=N1 (centres undefined),34.6
2,C=CCSC1=C(C#N)C(c2ccccc2OCC)CC(=O)N1 (centres undefined),118
3,COc1ccc(-n2c(C)c(C(C)=O)c(C(C)=O)c2C)cc1OC,61.4
4,CC(=O)Nc1nc(N2C(=O)c3ccccc3C2=O)n(-c2ccccc2)n1,62.1
5,O=C(CN1CCN(c2ccc([N+](=O)[O-])cc2)CC1)Nc1nccs1,101
6,CCc1nnc(NC(=O)CSc2nnc(Cc3cc(=O)[nH]c(=O)[nH]3)n2-c2ccc(OC)cc2)s1,42.2
7,CC1Oc2ccccc2C=C1C1/C(=C(/O)c2ccccc2)C(=O)C(=O)N1CCCN(C)C (centres undefined),98.9
8,O=C(COc1ccccc1/C=C1\SC(=O)NC1=O)Nc1ccccc1,38.1
9,O=C(c1cncc(Br)c1)N1CCc2ccccc2C1,43.4
10,O=C1OC(c2ccccc2)/C(=C(/O)c2ccc(Cl)cc2)C1=O (centres undefined),124
11,CCc1nc2cc(Cl)c(Cl)cc2[nH]1,131
12,CN(C)CCCNC1=CC(=O)CC(c2ccccc2)C1 (centres undefined),23.6
13,CCOc1cccc(C2C(C#N)=C(N)Oc3cc(C)oc(=O)c32)c1OCC (centres undefined),97.9
14,CCC(=NC(C)c1ccccc1)c1c(O)n(C)c(=O)n(C)c1=O (centres undefined),23.1
15,Cc1ccc(C(C)C)c(OCCNS(C)(=O)=O)c1,84.3
16,c1nc(NC2CCCCCC2)c2[nH]cnc2n1,99.7
17,CN(C)c1ccc(S(=O)(=O)c2ccc(Cl)cc2)cc1,107
18,COC(=O)CN1C(=S)N(Cc2ccccc2)C(=O)C1CC(=O)Nc1ccc(OC)cc1 (centres undefined),39.4
19,Cc1ccc(CN2C(=O)CCC2C(=O)NCCCN2CCC(C)CC2)cc1 (centres undefined),129
20,COc1ccc(NS(=O)(=O)c2ccc(O)c(NC(=O)c3cc4c(C)nn(-c5ccc(F)cc5)c4s3)c2)cc1,107
21,O=C1Nc2ccc(S(=O)(=O)NCCC3=CCCCC3)c3cccc1c23,67.8
22,C=CCNC(=O)COC(=O)c1ccc(C)c(NC(=O)c2ccco2)c1,42.9
23,COc1cc(OC)cc(C(=O)NCC(=O)OCC(=O)Nc2ccc3c(c2)OCO3)c1,123

# 3 structures from above, arranged by number of heavy atoms, rising:
row,Compound,normalized cell count [%]
15,Cc1ccc(C(C)C)c(OCCNS(C)(=O)=O)c1,84.3
4,CC(=O)Nc1nc(N2C(=O)c3ccccc3C2=O)n(-c2ccccc2)n1,62.1
18,COC(=O)CN1C(=S)N(Cc2ccccc2)C(=O)C1CC(=O)Nc1ccc(OC)cc1 (centres undefined),39.4

# Continued:

row,Compound,normalized cell count [%]
1,COc1cccc(OC)c1OCCN(C)C,92.6
2,Cc1ccc(C(=O)NNC2CC(=O)N(c3ccc4c(c3)OCCO4)C2=O)cc1 (centres undefined),49.1
3,Cc1ccc(-c2nnn(CC(=O)N(C)C3CCCCC3)n2)o1,90.5
4,O=C(NCCCn1ccnc1)c1cc([N+](=O)[O-])cc([N+](=O)[O-])c1,167
5,O=C(O)c1cccc(NC(=S)N/N=C/c2cccc(O)c2)c1,32.6
6,Cc1cc(NCCO)nc(-n2nc(C)cc2C)n1,61.5
7,Cc1nc2ccccc2c(=O)n1NC(=O)c1ccccc1[N+](=O)[O-],43.5
8,Cc1ccccc1-c1noc(-c2cccs2)n1,98.4
9,CCN1C(=O)C(O)(CC(=O)c2ccccn2)c2ccccc21 (centres undefined),25.8
10,COc1cc(OC)c(C2=NOC(C(=O)Nc3c(C)nn(CC(=O)N4CCCC4)c3C)C2)cc1Cl (centres undefined),90.3
11,COc1cccc(-c2nn(C)c3sc(C(=O)NCc4ccc(C)o4)cc23)c1,66.8
12,CC(=O)Nc1nn(C)c2nc3cc(C)ccc3cc12,71.9
13,CCOC(=O)C1CCN(C(=O)CSc2n[nH]c(=O)[nH]c2=O)CC1,112
14,Cc1nc2c3cc(F)ccc3n(Cc3ccc(F)cc3)c2s1,116
15,O=C(O)c1ccc(-c2ncc[nH]2)cc1,40.7
16,COC(=O)CSCC(=O)Nc1cc2c(cc1C(C)=O)OCO2,51.8
17,COc1ccc(CN2C3CCCC2CC(NC(=O)Nc2ccccc2)C3)cc1 (centres undefined),35.8
18,O=C(Nc1ccc(S(=O)(=O)N2CCCCC2)cc1)c1ccc(CN2CCOCC2)cc1,100
19,Cc1cccc(-c2noc(-c3ccccc3C(=O)NCC3CCCO3)n2)c1 (centres undefined),97.5
20,COc1ccc(C2C3=C(N=C4SCC(=O)N42)c2ccccc2CC3)cc1 (centres undefined),90.1
